{"source": "patent US20030124132A1", "about": "(University of Texas, published 2003)", "binders": {"B1": {"name": "recombinant, depyrogenated truncated Tissue Factor (amino acids 1-219) of Example X (other, human, UniProt P13726 33-251, looked up)", "chain": "SGTTNTVAAYNLTWKSTNFKTILEWEPKPVNQVYTVQISTKSGDWKSKCFYTTDTECDLTDEIVKDVKQTYLARVFSYPAGNVESTGSAGEPLYENSPEFTPYLETNLGQPTIQSFEQVGTKVNVTVEDERTLVRRNNTFLSLRDVFGKDLIYTLYYWKSSSSGKKTAKTNTNEFLIDVDKGENYCFSVQAVIPSRTVNRKSTDSPVECMGQEKGEFRE", "notes": "also called tTF; endotoxin-free tTF"}}, "target": "T1, recombinant, depyrogenated truncated Tissue Factor (amino acids 1-219) of Example X (human), P13726", "T1 chain": "B1 chain", "assay": "SPR (Biacore, CM5 chip); tTF immobilized by amine coupling (700 RU) or captured by anti-human TF antibody (300 RU); tTF injected alone or after preincubation with LPS (10 µg/ml)", "settings": "remark: other sources report otherwise", "note": "No constants are given. Whether binding was seen depends on the method and setting."}
{"binder": "B1", "values": [{"measurement": "binding", "result": "no binding (tested: 30 µg/ml)"}]}
